The results in this text go back to PMC11672271.

Chains of the proteins cited; added tags and fusions are not shown.
UniProt P42227: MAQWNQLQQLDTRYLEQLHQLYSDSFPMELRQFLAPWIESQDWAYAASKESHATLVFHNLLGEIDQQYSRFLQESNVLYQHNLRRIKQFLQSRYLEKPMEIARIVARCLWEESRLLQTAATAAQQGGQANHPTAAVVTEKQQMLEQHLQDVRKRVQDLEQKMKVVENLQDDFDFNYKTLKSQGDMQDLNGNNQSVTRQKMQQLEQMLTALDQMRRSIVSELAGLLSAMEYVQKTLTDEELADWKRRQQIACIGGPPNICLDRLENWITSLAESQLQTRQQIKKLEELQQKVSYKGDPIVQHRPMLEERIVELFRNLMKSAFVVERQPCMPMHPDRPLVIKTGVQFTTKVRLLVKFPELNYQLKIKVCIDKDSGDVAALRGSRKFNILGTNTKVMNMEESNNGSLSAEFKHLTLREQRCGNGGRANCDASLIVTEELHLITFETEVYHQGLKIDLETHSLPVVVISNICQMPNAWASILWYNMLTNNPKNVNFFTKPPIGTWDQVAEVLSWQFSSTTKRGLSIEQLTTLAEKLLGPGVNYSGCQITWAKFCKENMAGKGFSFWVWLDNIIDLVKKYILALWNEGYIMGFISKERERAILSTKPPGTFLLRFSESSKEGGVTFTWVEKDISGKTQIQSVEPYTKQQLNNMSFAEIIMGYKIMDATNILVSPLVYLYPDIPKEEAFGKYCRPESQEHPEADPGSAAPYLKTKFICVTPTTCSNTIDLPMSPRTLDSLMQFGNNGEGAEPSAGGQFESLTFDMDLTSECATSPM
UniProt A6H5Z3: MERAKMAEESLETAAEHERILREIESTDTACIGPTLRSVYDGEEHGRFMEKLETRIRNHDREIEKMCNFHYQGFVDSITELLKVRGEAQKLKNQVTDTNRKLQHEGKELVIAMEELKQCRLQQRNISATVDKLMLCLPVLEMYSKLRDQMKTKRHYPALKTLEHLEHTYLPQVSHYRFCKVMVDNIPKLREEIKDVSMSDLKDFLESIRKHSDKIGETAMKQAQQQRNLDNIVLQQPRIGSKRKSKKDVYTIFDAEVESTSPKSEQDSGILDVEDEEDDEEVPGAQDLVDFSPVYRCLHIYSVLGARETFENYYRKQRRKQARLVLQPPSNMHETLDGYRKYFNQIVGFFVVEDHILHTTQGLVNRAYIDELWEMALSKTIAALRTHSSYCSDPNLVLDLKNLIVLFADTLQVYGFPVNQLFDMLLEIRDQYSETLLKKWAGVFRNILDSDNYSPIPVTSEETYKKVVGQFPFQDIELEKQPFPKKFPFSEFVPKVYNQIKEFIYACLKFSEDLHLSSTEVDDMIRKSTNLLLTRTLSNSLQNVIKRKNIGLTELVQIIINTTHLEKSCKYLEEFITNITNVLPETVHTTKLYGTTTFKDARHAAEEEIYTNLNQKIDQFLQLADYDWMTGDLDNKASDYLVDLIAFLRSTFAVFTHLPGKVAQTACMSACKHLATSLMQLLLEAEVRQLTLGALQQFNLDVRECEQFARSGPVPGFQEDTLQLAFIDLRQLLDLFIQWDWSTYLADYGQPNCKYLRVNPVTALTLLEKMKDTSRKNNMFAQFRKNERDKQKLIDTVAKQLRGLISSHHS
UniProt O08537: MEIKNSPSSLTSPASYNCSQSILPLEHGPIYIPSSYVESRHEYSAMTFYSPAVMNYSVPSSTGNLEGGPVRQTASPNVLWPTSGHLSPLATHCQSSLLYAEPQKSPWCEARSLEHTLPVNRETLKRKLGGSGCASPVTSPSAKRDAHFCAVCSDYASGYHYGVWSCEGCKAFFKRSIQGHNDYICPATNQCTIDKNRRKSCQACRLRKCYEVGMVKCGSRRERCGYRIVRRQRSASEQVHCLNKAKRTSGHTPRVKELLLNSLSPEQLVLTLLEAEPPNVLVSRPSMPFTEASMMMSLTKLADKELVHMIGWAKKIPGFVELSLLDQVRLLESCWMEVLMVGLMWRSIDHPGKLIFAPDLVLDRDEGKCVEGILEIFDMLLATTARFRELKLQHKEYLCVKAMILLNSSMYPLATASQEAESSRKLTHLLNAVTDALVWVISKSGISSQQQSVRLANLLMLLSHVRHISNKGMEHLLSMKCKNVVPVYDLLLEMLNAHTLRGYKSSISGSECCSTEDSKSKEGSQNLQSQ

These are yes or no findings as the source states them, for the method shown. Binding seen in cells or lysates may run through a third protein. Here binding means that the protein was enriched with, or labelled near, the bait; the list need not be complete.

The target in the assay is Myc-tagged STAT3 (bait of the mass spectrometry experiment) (UniProt P42227). The assay is described as follows: affinity purification with mass spectrometry; Myc-STAT3 transfected into cells (mESC or HEK-293T), LIF-treated; c-Myc Tag IP/Co-IP kit, 10% SDS-PAGE, Coomassie, in-gel trypsin digestion of unique bands, ion-trap MS/MS.

“Sec15b (hit of the mass spectrometry experiment) (from UniProt A6H5Z3 1-810)”: the binding result is “binds”.

Turning to “estrogen receptor beta (ERβ) (from UniProt O08537 1-530)”, the binding entry is reported as “binds”.
